Assay results reported in PubChem BioAssay AID758 (NMMLSC, 2007).
Out of some 190,000 compounds screened, about 110 (0.058%) were called active. The inconclusive results got no clear call from the source; some entries with a clear call stand among them for comparison.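 The calls were made as follows: active = fluorescent GTP binding to Rab7 beads changed by at least 20 points from the 100% baseline, either direction, mostly lower; inconclusive = compound itself probably fluorescent, or too few beads counted; inactive = the rest.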

Each compound was assayed on Rab7 GTPase wild type (dog), Bodipy-FL-GTP binding (assay: modulators of GTP binding to Rab7, primary screen, biochemical, wildtype, multiplex bead flow cytometry (AID 758;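 also: median green fluorescence of bound Bodipy-FL-GTP per Rab7 bead population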)). Settings: GST-Rab7 beads, fluorescent GTP binding, at 10 µM, actives lie on both sides, untreated = 100%, excess cold GTP = 0%.

SMILES | GTP binding activity (percent of control)
Clc1cccc(Cl)c1/C=N\Nc1nccs1 | inconclusive: 7%
O=C(CC(NCc1ccccn1)C(=O)O)Nc1ccccc1Cl (stereo unspecified) | inconclusive: 96%
O=C(C#Cc1ccccc1)c1cccc([N+](=O)[O-])c1 | inactive: 91%
CN1CCN(C(=O)/C=C/c2cn(-c3ccccc3)nc2-c2ccc3c(c2)OCCO3)CC1 | inconclusive: 105%
CN(C)c1ccc(CN(C(=O)COc2ccc(Br)cc2)C2CCS(=O)(=O)C2)cc1 (stereo unspecified) | inconclusive: 97%
CCn1c(SCC(=O)Nc2oc(-c3ccccc3)c(-c3ccccc3)c2C#N)nnc1-c1cc(OC)cc(OC)c1 | inconclusive: 91%
CCOC(=O)Cc1csc(/N=C/c2c(O)n(-c3ccccc3C(F)(F)F)c(=O)c3ccccc23)n1 | inactive: 97%
CC(C)NC(=O)C(=O)NCCN1CCN(C(=O)c2ccc(C(C)(C)C)cc2)CC1 | inconclusive: 98%
Fc1ccc(/C=C2\CCCC3=C2Nc2ncnn2C3c2ccc(F)cc2)cc1 (stereo unspecified) | inactive: 102%
CCNc1nc(SC)nc(N(C#N)CC(=O)OC)n1 | inconclusive: 103%
NS(=O)(=O)c1ccc(Nc2nc(-c3ccc(F)cc3)cs2)cc1 | inactive: 100%
Cn1cc(-c2nnnn2-c2ccccc2)c(=O)c2ccccc21 | inconclusive: 98%
Cc1nc(N2CCOCC2)nc(OCCN2CCOCC2)c1[N+](=O)[O-] | inactive: 100%
CCOc1cc(CNCc2ccncc2)cc(Cl)c1OC | inconclusive: 104%
O=C(CCC(=O)N1CCN(S(=O)(=O)c2ccccc2)CC1)NC1CCCc2ccccc21 (stereo unspecified) | inconclusive: 107%
COc1ccc(/C=N/NC(=O)Nc2cccc3nsnc23)cc1OC | inconclusive: 87%
CNC(=O)C(C)NS(=O)(=O)c1ccc(F)cc1 (stereo unspecified) | active: 27%
CCCNC(=O)CCn1c(-c2ccc(C)cc2)cc(C(=O)OCC)c1C | inconclusive: 96%
Cc1nc(S(=O)(=O)N(C)Cc2ccccc2)c(C#N)c(C)c1Cl | inconclusive: 107%
CCCOc1ccc(N2C(=O)CC(N(CCC)C(=O)CCC(=O)O)C2=O)cc1 (stereo unspecified) | inactive: 97%
COc1cc(/C=N/NC(=O)CSc2cc(C)c(Br)cc2C)ccc1O | inconclusive: 94%
CCN(CC)CCNC(=O)CCn1c(=S)[nH]c2cc3c(cc2c1=O)OCO3 | inconclusive: 99%
CC(C)(c1ccccc1)c1ccc(OCC(O)CNC2CCN(Cc3ccccc3)CC2)cc1 (stereo unspecified) | inactive: 98%

SMILES | GTP binding activity (percent of control)
CCSc1nc(-c2cccs2)nc2ccccc12 | inactive: 103%
Brc1ccccc1-n1nnc(-c2ccnc3ccccc23)n1 | inconclusive: 101%
CCC(CC)C1C(C#N)=C(N)Oc2n[nH]c(C)c21 (stereo unspecified) | inconclusive: 99%
COc1ccc(/C=N/NC(=O)c2cccnc2)cc1Cn1nc([N+](=O)[O-])c(Br)c1C | inconclusive: 82%
Oc1ccc(/C=N/Nc2nc(-c3ccc(Cl)cc3)cc(C(F)(F)F)n2)cc1 | inactive: 100%
Cc1ccn2c(=O)nc(SCc3cccc(C(F)(F)F)c3)nc2c1 | inactive: 96%
Cc1cccc(-n2c(SCc3ccc(C#N)cc3)nnc2-c2c[nH]c3ccccc23)c1 | inconclusive: 96%
Cc1cccc2cc(CN(CC3CCCO3)C(=O)c3ccco3)c3nnnn3c12 (stereo unspecified) | inconclusive: 98%
CSC1=NC(=O)/C(=C\c2cccc3ccccc23)S1 | inconclusive: 92%
CC(/C=C1\SC(=S)N(NC(=O)c2ccccc2C)C1=O)=C\c1ccccc1 | inconclusive: 89%
COc1ccc(N2CC(C(=O)OC(C)C(=O)c3ccccc3)CC2=O)cc1 (stereo unspecified) | inactive: 96%
N#CC(C#N)=C(Nc1ccc(F)cc1)SCc1cccc(Br)c1 | inactive: 101%
O=C(NCc1ccccc1)c1noc2c1CCCCC2 | inconclusive: 95%
CCOc1cccc(/C(O)=C2/C(=O)C(=O)N(CCOC)C2c2ccncc2)c1 (stereo unspecified) | inconclusive: 592%
COc1ccc(OC)c(NC(=O)CCc2c[nH]c3ccccc23)c1 | inconclusive: 98%
O=C(CSc1nc2ccccc2c(=O)n1CCCN1CCOCC1)c1c[nH]c2ccccc12 | inconclusive: 100%
CC(C)CCN(C(=O)Cc1ccc(Cl)c(Cl)c1)c1c(N)n(Cc2ccccc2)c(=O)[nH]c1=O | inconclusive: 95%
CNc1ccccc(-c2ccc3ccccc3n2)c1=O | inactive: 96%
Cc1nn(C)cc1/C=C(/C#N)C(N)=O | inactive: 105%
CN(C)CCN(C(=O)c1ccccc1Cl)c1nc2c(Cl)cccc2s1 | inactive: 99%
COc1ccccc1NC(=O)Cn1cc(C#N)c2ccccc21 | inconclusive: 98%
O=C(O)c1cc(N2C(=O)C3C4C=CC(C4)C3C2=O)ccc1NCc1cccnc1 (stereo unspecified) | inconclusive: 103%
O=C(NC(=S)Nc1ccc(N2CCOCC2)c(Cl)c1)c1cccs1 | inconclusive: 97%

As a working copy, part of the list above.
SMILES | GTP binding activity (percent of control)
CC(/C=C1\SC(=S)N(NC(=O)c2ccccc2C)C1=O)=C\c1ccccc1 | inconclusive: 89%
COc1ccc(N2CC(C(=O)OC(C)C(=O)c3ccccc3)CC2=O)cc1 (stereo unspecified) | inactive: 96%
N#CC(C#N)=C(Nc1ccc(F)cc1)SCc1cccc(Br)c1 | inactive: 101%
O=C(NCc1ccccc1)c1noc2c1CCCCC2 | inconclusive: 95%
CCOc1cccc(/C(O)=C2/C(=O)C(=O)N(CCOC)C2c2ccncc2)c1 (stereo unspecified) | inconclusive: 592%
COc1ccc(OC)c(NC(=O)CCc2c[nH]c3ccccc23)c1 | inconclusive: 98%
O=C(CSc1nc2ccccc2c(=O)n1CCCN1CCOCC1)c1c[nH]c2ccccc12 | inconclusive: 100%
CC(C)CCN(C(=O)Cc1ccc(Cl)c(Cl)c1)c1c(N)n(Cc2ccccc2)c(=O)[nH]c1=O | inconclusive: 95%
CNc1ccccc(-c2ccc3ccccc3n2)c1=O | inactive: 96%
Cc1nn(C)cc1/C=C(/C#N)C(N)=O | inactive: 105%
CN(C)CCN(C(=O)c1ccccc1Cl)c1nc2c(Cl)cccc2s1 | inactive: 99%
COc1ccccc1NC(=O)Cn1cc(C#N)c2ccccc21 | inconclusive: 98%
O=C(O)c1cc(N2C(=O)C3C4C=CC(C4)C3C2=O)ccc1NCc1cccnc1 (stereo unspecified) | inconclusive: 103%
